Experimental data published in patent US20110182817A1 (NATIONAL UNIVERSITY CORPORATION OKAYAMA UNIVERSITY, published 2011).
Results are given in words; binding and its absence hold for the method and conditions named. Some binding calls cover weakened binding; strength is not graded here.

Chains of the proteins cited; added tags and fusions are not shown. Lines headed by an entry give the natural chain unless they say otherwise; changes in a name come on top. Residues count along the entry.
UniProt P04114, residues 28-4563: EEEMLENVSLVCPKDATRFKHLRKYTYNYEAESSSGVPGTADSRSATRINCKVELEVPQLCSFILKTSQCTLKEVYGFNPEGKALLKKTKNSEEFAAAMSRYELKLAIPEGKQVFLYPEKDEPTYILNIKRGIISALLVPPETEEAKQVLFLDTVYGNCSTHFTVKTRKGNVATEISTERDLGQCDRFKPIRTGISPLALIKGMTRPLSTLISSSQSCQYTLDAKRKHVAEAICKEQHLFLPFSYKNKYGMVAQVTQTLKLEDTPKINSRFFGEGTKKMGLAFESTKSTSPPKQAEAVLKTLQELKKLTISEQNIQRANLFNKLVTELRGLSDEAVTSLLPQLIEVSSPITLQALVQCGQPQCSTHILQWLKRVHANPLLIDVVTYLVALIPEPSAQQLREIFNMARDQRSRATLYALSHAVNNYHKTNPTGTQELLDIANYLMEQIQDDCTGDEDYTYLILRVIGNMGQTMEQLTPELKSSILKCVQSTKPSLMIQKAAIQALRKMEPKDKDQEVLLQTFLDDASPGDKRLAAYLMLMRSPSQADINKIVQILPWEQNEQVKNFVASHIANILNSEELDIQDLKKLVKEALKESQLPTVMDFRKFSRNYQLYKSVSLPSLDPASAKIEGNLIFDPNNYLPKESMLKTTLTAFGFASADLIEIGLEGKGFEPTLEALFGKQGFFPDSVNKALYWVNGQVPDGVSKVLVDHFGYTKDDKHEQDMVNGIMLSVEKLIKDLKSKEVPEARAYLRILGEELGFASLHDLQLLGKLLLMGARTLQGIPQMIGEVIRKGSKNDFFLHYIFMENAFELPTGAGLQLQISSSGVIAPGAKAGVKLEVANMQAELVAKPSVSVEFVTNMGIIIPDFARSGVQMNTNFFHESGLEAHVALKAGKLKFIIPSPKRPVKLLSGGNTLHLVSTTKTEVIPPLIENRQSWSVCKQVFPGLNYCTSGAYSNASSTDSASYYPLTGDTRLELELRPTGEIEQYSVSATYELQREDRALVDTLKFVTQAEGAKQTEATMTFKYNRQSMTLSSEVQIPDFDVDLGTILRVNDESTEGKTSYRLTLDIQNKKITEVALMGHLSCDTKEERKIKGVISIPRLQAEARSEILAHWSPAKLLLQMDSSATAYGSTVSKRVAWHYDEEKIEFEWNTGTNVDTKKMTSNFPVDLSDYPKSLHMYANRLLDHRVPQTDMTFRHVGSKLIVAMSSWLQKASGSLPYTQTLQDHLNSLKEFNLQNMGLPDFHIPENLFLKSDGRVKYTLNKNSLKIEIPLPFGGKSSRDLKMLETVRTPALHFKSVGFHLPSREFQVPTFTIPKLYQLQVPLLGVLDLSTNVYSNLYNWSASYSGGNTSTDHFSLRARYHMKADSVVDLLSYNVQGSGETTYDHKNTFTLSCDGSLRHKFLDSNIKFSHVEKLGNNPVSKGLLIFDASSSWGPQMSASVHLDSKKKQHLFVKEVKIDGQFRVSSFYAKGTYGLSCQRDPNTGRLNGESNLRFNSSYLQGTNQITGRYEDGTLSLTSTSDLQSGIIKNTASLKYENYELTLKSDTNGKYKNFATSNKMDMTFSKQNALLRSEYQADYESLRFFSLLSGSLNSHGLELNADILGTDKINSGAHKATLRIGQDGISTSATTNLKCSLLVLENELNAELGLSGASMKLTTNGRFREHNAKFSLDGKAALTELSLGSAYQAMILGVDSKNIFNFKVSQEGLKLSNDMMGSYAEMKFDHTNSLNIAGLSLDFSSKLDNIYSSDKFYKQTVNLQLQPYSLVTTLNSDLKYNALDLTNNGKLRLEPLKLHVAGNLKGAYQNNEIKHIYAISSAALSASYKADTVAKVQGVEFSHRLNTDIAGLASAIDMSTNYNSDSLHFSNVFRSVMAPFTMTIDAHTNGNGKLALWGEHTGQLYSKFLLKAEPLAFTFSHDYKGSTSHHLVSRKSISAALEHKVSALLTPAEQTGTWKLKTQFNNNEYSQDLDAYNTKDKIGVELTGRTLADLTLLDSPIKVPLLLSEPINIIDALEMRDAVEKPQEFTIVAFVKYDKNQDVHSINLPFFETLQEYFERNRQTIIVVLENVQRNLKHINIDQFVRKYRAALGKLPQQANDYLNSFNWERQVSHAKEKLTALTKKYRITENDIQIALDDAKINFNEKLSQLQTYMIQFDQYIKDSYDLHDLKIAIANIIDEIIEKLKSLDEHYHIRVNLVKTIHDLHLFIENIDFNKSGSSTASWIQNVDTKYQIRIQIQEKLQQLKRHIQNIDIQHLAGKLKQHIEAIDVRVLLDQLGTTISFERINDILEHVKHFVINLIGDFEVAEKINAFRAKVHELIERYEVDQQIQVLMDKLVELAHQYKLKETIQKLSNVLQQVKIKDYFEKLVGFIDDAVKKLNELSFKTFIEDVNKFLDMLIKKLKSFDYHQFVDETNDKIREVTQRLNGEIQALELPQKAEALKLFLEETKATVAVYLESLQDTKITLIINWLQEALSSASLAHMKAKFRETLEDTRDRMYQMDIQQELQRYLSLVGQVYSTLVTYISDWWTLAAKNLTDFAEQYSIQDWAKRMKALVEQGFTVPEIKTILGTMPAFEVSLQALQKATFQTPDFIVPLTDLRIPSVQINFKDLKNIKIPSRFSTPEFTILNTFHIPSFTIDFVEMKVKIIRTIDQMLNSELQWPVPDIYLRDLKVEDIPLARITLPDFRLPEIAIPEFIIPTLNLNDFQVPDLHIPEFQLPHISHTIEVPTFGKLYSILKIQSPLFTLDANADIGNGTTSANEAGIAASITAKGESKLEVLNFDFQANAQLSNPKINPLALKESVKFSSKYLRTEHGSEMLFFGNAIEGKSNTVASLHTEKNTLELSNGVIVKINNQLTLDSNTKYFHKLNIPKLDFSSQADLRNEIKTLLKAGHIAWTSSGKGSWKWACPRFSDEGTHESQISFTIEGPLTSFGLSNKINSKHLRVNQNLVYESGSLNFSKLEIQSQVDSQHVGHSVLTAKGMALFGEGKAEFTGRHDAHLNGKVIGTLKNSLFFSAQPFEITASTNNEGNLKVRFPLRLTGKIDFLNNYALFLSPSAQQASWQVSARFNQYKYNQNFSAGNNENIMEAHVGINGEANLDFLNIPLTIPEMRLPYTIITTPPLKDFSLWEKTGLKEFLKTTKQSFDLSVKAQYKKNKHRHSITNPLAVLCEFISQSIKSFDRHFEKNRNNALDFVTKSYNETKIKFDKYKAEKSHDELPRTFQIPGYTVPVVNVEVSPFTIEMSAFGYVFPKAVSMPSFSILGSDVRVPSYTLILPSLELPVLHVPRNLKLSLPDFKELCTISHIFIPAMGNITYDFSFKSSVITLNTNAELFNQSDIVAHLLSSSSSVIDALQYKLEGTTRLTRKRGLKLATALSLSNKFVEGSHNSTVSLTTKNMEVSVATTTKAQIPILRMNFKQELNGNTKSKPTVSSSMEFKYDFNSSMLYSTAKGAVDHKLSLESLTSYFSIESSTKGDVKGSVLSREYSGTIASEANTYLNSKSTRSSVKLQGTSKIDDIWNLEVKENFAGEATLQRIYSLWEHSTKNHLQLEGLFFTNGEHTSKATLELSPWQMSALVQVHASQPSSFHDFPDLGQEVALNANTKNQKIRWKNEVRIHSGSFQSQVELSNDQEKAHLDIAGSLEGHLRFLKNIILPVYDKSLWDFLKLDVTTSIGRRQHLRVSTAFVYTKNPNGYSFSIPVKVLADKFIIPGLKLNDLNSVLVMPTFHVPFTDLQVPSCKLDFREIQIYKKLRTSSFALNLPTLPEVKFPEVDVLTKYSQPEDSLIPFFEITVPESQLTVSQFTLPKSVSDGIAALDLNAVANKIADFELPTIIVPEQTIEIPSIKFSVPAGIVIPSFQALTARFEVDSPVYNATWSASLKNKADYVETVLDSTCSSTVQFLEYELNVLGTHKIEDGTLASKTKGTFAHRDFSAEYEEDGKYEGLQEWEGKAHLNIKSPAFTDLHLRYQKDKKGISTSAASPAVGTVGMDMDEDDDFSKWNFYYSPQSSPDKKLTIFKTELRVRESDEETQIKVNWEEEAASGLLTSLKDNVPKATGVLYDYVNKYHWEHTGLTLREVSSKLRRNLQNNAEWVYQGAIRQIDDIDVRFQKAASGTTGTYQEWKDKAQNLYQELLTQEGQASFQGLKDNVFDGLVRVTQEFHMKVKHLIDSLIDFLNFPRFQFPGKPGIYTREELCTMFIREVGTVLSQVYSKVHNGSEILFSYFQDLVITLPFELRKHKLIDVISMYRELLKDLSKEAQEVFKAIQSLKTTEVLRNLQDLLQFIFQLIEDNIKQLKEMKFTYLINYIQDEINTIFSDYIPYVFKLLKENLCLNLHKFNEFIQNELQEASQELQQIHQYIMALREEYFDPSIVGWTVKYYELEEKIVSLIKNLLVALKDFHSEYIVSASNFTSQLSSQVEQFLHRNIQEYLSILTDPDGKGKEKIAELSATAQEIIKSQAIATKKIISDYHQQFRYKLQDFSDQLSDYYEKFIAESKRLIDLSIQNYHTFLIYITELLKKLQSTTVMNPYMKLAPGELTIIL
UniProt P02749: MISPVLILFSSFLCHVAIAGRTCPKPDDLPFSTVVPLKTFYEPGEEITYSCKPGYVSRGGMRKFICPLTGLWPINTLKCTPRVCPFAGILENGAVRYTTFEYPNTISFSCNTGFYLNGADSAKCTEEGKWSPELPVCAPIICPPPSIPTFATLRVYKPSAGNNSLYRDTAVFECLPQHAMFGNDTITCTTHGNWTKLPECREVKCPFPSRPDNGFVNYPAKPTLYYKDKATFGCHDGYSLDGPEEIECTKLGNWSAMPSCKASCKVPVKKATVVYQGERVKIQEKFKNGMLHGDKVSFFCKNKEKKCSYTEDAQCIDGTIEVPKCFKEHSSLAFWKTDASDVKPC

Tests used:
[1] = target: human LDL oxidatively modified by copper sulfate (human) (UniProt P04114); test: ELISA (as described in the Examples)
[2] = target: human LDL oxidatively modified by copper sulfate (human) (UniProt P04114); test: ELISA on immobilized Cu-oxidized human LDL, anti-mouse IgM-HRP
[3] = target: T1, human oxidized LDL/β2GPI complex (human) (UniProt P02749+P04114); test: competitive inhibition ELISA, free oxidized LDL/β2GPI complex in solution against immobilized oxidized LDL/β2GPI
[4] = target: T1, human oxidized LDL/β2GPI complex (human); test: ELISA on complex coated at 1 µg/ml, anti-mouse IgG-HRP
[5] = target: T1, human oxidized LDL/β2GPI complex (human); test: ELISA, binding to immobilized oxidized LDL/β2GPI complex
[6] = target: T1, human oxidized LDL/β2GPI complex (human); test: competitive inhibition ELISA with free antigen (FIG. 12)
[7] = target: T1, human oxidized LDL/β2GPI complex (human); test: competitive inhibition ELISA with free antigen
[8] = target: T1, human oxidized LDL/β2GPI complex (human); test: competitive inhibition ELISA, free oxidized LDL/β2GPI complex as competitor

Measured: binding

B1: CL15-203 (antibody, IgM, V domains shown)
VH: QVQLKESGPGLVAPSQSLSITCTVSGFSLTDYGVSWIRQPPGKGLEWLGVIWGGGSTYYNSALKSRLSISKDNSKSQVFLKMNSLQTDDTAMYYCAKHGRMGRKNYFDYWGQGTTLTVSS
VL: DVQITQSPSYLAASPGETITINCRASKSISKYLAWYQEKPGKTNKLLIYSGSTLQSGIPSRFSGSGSGTDFTLTISSLEPEDFAMYYCQQHNEYPYTFGGGTKLEIK
binds: [1] | [2]

B2: CL19-107 (antibody, IgM, V domains shown)
VH: EVQLQQSGPELVKPGASVKISCKTSGYTFTEYTMHWVKQSHGKSLEWIGGINPNNGGTSYNQKFKGKATLTVDKSSSTAYMELRSLTSEDSAVYYCARSGDYGTGAWFAYWGQGTLVTVSA
VL: DIVMSQSPSSLAVSAGEKVTMSCKSSQSLLNSRTRKNYLAWYQQKPGQSPKLLIYWASTRESGVPDRFTGSGSGTDFTLTISSVQAEDLAVYYCKQSYNLFTFGSGTKLEIK
binds: [1] | [2]

B3: antibody 3H3 (antibody, V domains shown)
VH: EVQLVESGGGLVKPGGSLKLSCAASGFTFSSYAMSWARQTPEKRLEWVATISSGGSYTYYPDSVRGRFTISRDNAKNTLYLQMCSLRSEDTAMYYCARFDGYYAMDYWGQGTSVTVSS
VL: DIVMTQSHKFMSTSVGDRVSITCKASQDVGSAVAWYQQKPGQSPKLLIYWASTRHTGVPDRFTGSGSGTDFTLTISSLQSEDLADYFCQQYSSYPLTFGSGTKLEIK
not listed: [1] | [2]
binds: all other assays above
